Test results: doi:10.1101/2024.01.10.574969
These are yes or no findings as the source states them, for the method shown. In cells and extracts the contact can be indirect. A yes stands for co-enrichment or nearness to the bait. Other partners may have been found.

By UniProt entry, the sequences of proteins in these tests, tags left out. Residues count along the entry.
UniProt Q9ULT6, residues 56-936: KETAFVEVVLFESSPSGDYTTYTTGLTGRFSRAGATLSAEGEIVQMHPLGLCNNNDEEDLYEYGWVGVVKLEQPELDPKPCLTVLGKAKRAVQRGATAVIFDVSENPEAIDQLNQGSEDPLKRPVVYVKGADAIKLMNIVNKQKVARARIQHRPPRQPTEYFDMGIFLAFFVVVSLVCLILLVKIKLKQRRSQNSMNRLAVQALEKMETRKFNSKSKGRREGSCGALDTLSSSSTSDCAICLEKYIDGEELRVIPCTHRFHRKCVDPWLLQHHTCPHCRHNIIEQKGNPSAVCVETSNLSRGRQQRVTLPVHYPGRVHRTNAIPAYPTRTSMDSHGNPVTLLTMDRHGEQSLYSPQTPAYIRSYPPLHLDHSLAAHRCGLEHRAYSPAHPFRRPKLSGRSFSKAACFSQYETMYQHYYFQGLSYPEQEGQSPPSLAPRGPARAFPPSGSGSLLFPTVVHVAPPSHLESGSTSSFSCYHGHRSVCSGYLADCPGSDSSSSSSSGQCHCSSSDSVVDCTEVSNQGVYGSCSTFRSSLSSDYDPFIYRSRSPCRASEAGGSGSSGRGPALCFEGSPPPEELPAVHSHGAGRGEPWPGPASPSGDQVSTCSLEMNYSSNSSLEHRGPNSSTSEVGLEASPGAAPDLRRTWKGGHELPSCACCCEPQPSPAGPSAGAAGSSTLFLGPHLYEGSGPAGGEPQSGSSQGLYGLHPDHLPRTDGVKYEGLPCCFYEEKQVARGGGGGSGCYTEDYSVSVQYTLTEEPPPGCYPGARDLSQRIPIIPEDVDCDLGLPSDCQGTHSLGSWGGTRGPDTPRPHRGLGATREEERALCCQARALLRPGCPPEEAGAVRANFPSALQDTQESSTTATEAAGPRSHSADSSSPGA

Molecular target: EGFR (BCG823 cells) (human (endogenous in BCG823)) (UniProt P00533)
Experiment: affinity purification with mass spectrometry; BCG823 cells starved overnight, 50 ng/ml EGF for 120 minutes; 1 mg lysate with 5 μg EGFR (Ab-13) antibody, protein A-Sepharose, washed with NETN buffer (20 mM Tris pH7.5, 1 mM EDTA, 0.5% NP-40, 150 mM NaCl); LC-MS/MS

binding: binds
Substance: endogenous ZNRF3 protein (BCG823 cells) (from UniProt Q9ULT6 56-936) (enzyme)
